Paper PMC9562184
Read-outs that look alike come from different tables or passages of the source. No constants are given. Whether binding was seen depends on the method and setting. Binding seen in cells or lysates may run through a third protein. Some entries that bind do so weakly or less than the wild type. For some of these results: Sequences can lack the tags named with a protein.

The chains behind the UniProt entries cited, without tags or fusion partners.
UniProt Q13547: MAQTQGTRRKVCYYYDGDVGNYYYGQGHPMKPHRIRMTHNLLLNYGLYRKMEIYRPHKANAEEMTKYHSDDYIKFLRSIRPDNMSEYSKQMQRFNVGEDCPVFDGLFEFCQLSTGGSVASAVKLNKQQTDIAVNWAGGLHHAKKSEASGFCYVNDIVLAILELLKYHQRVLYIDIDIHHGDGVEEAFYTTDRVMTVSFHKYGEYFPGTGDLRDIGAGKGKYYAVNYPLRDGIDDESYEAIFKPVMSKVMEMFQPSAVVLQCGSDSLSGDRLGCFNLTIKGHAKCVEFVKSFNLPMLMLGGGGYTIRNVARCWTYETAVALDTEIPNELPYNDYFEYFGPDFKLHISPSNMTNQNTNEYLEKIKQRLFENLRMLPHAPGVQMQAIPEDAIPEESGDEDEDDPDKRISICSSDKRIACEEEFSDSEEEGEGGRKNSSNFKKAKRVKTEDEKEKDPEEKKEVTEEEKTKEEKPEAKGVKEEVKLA
UniProt P35222: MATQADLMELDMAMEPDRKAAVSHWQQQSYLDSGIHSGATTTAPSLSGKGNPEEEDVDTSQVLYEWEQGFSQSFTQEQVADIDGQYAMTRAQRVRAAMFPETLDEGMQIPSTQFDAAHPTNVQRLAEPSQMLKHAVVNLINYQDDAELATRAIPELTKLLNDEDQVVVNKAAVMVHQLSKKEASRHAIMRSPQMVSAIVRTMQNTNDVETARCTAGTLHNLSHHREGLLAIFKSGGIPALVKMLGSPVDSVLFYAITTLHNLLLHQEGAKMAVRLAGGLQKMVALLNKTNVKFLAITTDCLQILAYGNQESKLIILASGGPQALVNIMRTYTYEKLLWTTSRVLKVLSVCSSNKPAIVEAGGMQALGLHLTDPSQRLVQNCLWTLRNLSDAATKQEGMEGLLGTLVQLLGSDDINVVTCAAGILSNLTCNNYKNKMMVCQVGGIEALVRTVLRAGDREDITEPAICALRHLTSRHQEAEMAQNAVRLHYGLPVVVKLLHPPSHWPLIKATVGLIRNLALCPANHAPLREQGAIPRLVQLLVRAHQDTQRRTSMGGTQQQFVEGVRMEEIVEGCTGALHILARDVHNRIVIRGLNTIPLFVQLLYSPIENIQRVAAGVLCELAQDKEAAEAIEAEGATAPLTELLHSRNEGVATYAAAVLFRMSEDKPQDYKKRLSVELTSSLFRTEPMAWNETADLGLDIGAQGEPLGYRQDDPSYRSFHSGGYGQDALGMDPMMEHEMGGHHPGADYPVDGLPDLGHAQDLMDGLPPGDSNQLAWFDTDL
UniProt Q9NQB0: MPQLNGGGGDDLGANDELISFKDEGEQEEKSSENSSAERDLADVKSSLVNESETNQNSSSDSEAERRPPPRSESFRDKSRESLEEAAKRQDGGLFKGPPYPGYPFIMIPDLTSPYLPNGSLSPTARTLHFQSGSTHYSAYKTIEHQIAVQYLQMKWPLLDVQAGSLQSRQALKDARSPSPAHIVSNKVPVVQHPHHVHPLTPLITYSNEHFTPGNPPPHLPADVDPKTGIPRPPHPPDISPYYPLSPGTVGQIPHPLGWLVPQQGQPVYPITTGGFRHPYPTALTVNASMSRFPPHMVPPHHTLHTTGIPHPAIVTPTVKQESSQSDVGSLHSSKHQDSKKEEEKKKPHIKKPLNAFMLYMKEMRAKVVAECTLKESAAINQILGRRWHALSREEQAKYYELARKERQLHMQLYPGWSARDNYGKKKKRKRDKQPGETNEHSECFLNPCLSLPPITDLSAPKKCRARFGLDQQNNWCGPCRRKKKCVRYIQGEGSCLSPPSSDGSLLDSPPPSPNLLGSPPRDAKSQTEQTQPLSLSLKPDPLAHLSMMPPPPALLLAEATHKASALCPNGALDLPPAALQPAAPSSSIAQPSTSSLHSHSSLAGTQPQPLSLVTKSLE
UniProt O15379: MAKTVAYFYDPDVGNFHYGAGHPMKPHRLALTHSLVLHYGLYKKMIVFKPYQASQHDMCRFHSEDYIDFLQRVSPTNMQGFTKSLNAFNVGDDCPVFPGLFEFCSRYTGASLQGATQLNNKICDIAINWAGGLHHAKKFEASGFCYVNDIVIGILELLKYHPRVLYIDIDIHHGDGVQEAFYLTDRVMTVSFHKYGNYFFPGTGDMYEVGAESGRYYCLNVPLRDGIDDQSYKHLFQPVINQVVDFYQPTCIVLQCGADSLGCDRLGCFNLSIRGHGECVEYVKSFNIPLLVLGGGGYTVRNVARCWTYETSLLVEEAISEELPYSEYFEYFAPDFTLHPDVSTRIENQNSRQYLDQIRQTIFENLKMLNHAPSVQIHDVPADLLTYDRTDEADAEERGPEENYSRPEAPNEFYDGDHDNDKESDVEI

How the values were obtained:
[1] = target: HDAC1, endogenous (human (endogenous in HEK293T and DLD1)) (UniProt Q13547); experiment: co-IP; endogenous proteins: nuclear extracts or lysates of HEK293T and DLD1 cells, antibodies against HDAC1/2/3 or CREPT with protein G-Sepharose overnight at 4 °C, Western blot; in some panels cells with stable Myc–CREPT or CREPT KO, Flag–HDAC1 or siHDAC1-1/2, or with Wnt3a
[2] = target: T1, CREPT, endogenous (human (endogenous in HEK293T and DLD1)) (UniProt Q9NQG5); experiment: as above
T1 sequence: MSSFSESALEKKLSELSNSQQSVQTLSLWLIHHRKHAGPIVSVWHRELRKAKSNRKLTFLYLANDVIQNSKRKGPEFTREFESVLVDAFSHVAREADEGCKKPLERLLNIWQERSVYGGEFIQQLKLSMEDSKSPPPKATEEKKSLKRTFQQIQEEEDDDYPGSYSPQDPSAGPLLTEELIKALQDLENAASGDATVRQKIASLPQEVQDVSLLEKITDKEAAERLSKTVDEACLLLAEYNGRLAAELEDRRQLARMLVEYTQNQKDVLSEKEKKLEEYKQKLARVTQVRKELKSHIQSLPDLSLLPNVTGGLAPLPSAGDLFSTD

Flag–β-catenin = Flag–β-catenin (UniProt P35222); experiment: co-IP; exogenous: HEK293T cells co-transfected with tagged plasmids; lysates incubated with tag antibodies (anti-HA, anti-Myc, anti-Flag) and protein G-Sepharose overnight at 4 °C, washed four times with lysis buffer (50 mM Tris–Cl, 150 mM NaCl, 1% NP40, 0.5% sodium deoxycholate, 1% SDS, pH 8.0), Western blot; in some panels cells with stable Myc–CREPT or CREPT KO, Flag–HDAC1 or siHDAC1, or with Wnt3a for 20 h
[3] = target: T2, Myc–CREPT (cell cycle-related and expression-elevated protein in tumor) (UniProt Q9NQG5); experiment: as above
T2 sequence: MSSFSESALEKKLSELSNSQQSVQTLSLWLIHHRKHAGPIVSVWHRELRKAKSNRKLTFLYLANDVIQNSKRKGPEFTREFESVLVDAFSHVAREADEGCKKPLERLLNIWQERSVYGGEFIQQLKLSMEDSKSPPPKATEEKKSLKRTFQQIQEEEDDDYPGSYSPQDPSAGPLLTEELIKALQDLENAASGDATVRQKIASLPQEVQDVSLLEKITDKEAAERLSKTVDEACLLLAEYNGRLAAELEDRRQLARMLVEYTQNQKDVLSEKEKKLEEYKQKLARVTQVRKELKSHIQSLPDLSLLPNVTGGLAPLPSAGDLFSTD

[4] = target: T2, Myc–CREPT (cell cycle-related and expression-elevated protein in tumor); experiment: condition: only in the complex first precipitated by the anti-Flag antibody (Flag–HDAC1); co-IP; re-IP: HEK293T co-transfected with Flag–HDAC1 (10 μg), HA–TCF4 (6 μg) and Myc–CREPT (4 μg); first IP with anti-Flag, eluted by 3 × Flag peptide, re-IP with anti-Myc or anti-HA and protein G-Sepharose at 4 °C for 16 h
Myc–CREPT–CID = target: T3, Myc–CREPT–CID (UniProt Q9NQG5); experiment: co-IP; exogenous: HEK293T cells co-transfected with tagged plasmids; lysates incubated with tag antibodies (anti-HA, anti-Myc, anti-Flag) and protein G-Sepharose overnight at 4 °C, washed four times with lysis buffer (50 mM Tris–Cl, 150 mM NaCl, 1% NP40, 0.5% sodium deoxycholate, 1% SDS, pH 8.0), Western blot; in some panels cells with stable Myc–CREPT or CREPT KO, Flag–HDAC1 or siHDAC1, or with Wnt3a for 20 h
T3 sequence: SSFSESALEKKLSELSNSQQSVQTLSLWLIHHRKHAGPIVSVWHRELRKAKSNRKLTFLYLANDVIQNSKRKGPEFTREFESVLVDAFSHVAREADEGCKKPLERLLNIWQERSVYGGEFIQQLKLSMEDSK

HA–TCF4 [5] = target: HA–TCF4 (UniProt Q9NQB0); experiment: as above
[6] = target: T2, Myc–CREPT (cell cycle-related and expression-elevated protein in tumor); experiment: co-IP; re-IP: HEK293T co-transfected with Flag–HDAC1 (10 μg), HA–TCF4 (6 μg) and Myc–CREPT (4 μg); first IP with anti-Flag, eluted by 3 × Flag peptide, re-IP with anti-Myc or anti-HA and protein G-Sepharose at 4 °C for 16 h
HA–TCF4 [7] = target: HA–TCF4 (UniProt Q9NQB0); experiment: as above
HA–TCF4 [8] = target: HA–TCF4 (UniProt Q9NQB0); experiment: condition: only in the complex first precipitated by the anti-Flag antibody (Flag–HDAC1); co-IP; re-IP: HEK293T co-transfected with Flag–HDAC1 (10 μg), HA–TCF4 (6 μg) and Myc–CREPT (4 μg); first IP with anti-Flag, eluted by 3 × Flag peptide, re-IP with anti-Myc or anti-HA and protein G-Sepharose at 4 °C for 16 h
[9] = target: HA–HDAC1 (histone deacetylase 1) (UniProt Q13547); experiment: co-IP; exogenous: HEK293T cells co-transfected with tagged plasmids; lysates incubated with tag antibodies (anti-HA, anti-Myc, anti-Flag) and protein G-Sepharose overnight at 4 °C, washed four times with lysis buffer (50 mM Tris–Cl, 150 mM NaCl, 1% NP40, 0.5% sodium deoxycholate, 1% SDS, pH 8.0), Western blot; in some panels cells with stable Myc–CREPT or CREPT KO, Flag–HDAC1 or siHDAC1, or with Wnt3a for 20 h
[10] = target: HDAC1, endogenous (human (endogenous in HEK293T and DLD1)) (UniProt Q13547); experiment: co-IP; endogenous proteins: nuclear extracts or lysates of HEK293T and DLD1 cells, antibodies against HDAC1/2/3 or CREPT with protein G-Sepharose overnight at 4 °C, Western blot; in some panels cells with stable Myc–CREPT or CREPT KO, Flag–HDAC1 or siHDAC1-1/2, or with Wnt3a; remark: listed apart in the source
[11] = target: HDAC3, endogenous (human (endogenous in HEK293T and DLD1)) (UniProt O15379); experiment: as above

## TCF4, endogenous (from UniProt Q9NQB0 1-619)
[1]
  binding: binds
[2]
  binding: binds

## HDAC1, endogenous (from UniProt Q13547 1-482) (enzyme)
[2]
  binding: binds

## HA–HDAC1 (histone deacetylase 1) (from UniProt Q13547 1-482) (enzyme)
Flag–β-catenin
  binding: binds

## β-catenin, endogenous (from UniProt P35222 1-781)
[1]
  binding: binds
[2]
  binding: binds

## HA–TCF4 (from UniProt Q9NQB0 1-619)
[3]
  binding: binds
[4]
  binding: no binding

## HDAC3, endogenous (from UniProt O15379 1-428) (enzyme)
[2]
  binding: no binding

## Flag–β-catenin (from UniProt P35222 1-781)
[3]
  binding: binds

## Flag–HDAC1 (from UniProt Q13547 1-482) (enzyme)
[3]
  binding: binds
Myc–CREPT–CID
  binding: binds
HA–TCF4 [5]
  binding: binds
[6]
  binding: binds
HA–TCF4 [7]
  binding: binds

B1: Myc–CREPT (cell cycle-related and expression-elevated protein in tumor) (protein, UniProt Q9NQG5 1-326)
chain: MSSFSESALEKKLSELSNSQQSVQTLSLWLIHHRKHAGPIVSVWHRELRKAKSNRKLTFLYLANDVIQNSKRKGPEFTREFESVLVDAFSHVAREADEGCKKPLERLLNIWQERSVYGGEFIQQLKLSMEDSKSPPPKATEEKKSLKRTFQQIQEEEDDDYPGSYSPQDPSAGPLLTEELIKALQDLENAASGDATVRQKIASLPQEVQDVSLLEKITDKEAAERLSKTVDEACLLLAEYNGRLAAELEDRRQLARMLVEYTQNQKDVLSEKEKKLEEYKQKLARVTQVRKELKSHIQSLPDLSLLPNVTGGLAPLPSAGDLFSTD
HA–TCF4 [8]
  binding: no binding
[9]
  binding: binds

B2: CREPT, endogenous (protein, UniProt Q9NQG5 1-326)
chain: MSSFSESALEKKLSELSNSQQSVQTLSLWLIHHRKHAGPIVSVWHRELRKAKSNRKLTFLYLANDVIQNSKRKGPEFTREFESVLVDAFSHVAREADEGCKKPLERLLNIWQERSVYGGEFIQQLKLSMEDSKSPPPKATEEKKSLKRTFQQIQEEEDDDYPGSYSPQDPSAGPLLTEELIKALQDLENAASGDATVRQKIASLPQEVQDVSLLEKITDKEAAERLSKTVDEACLLLAEYNGRLAAELEDRRQLARMLVEYTQNQKDVLSEKEKKLEEYKQKLARVTQVRKELKSHIQSLPDLSLLPNVTGGLAPLPSAGDLFSTD
[10]
  binding: binds
[11]
  binding: no binding
